Results are given in words; binding and its absence hold for the method and conditions named. In cells and extracts the contact can be indirect. Some entries that bind do so weakly or less than the wild type.
Biological target: V5-tagged wild-type LIN54 (human) (UniProt Q6MZP7)
Test: co-IP; T98G cells co-transfected with V5-LIN54 (wild type or mutant) and HA-p130; extracts in EBC lysis buffer (50 mM Tris HCl pH 7.4, 150 mM NaCl, 0.5% NP-40); immunoprecipitated with anti-V5 antibody; western blot for LIN9, LIN37, Myb, V5 and HA

Protein sequences, listed by entry. Tags and fused reporters are not part of them. Lines headed by an entry give the natural chain unless they say otherwise; changes in a name come on top.
UniProt Q6MZP7, whole entry: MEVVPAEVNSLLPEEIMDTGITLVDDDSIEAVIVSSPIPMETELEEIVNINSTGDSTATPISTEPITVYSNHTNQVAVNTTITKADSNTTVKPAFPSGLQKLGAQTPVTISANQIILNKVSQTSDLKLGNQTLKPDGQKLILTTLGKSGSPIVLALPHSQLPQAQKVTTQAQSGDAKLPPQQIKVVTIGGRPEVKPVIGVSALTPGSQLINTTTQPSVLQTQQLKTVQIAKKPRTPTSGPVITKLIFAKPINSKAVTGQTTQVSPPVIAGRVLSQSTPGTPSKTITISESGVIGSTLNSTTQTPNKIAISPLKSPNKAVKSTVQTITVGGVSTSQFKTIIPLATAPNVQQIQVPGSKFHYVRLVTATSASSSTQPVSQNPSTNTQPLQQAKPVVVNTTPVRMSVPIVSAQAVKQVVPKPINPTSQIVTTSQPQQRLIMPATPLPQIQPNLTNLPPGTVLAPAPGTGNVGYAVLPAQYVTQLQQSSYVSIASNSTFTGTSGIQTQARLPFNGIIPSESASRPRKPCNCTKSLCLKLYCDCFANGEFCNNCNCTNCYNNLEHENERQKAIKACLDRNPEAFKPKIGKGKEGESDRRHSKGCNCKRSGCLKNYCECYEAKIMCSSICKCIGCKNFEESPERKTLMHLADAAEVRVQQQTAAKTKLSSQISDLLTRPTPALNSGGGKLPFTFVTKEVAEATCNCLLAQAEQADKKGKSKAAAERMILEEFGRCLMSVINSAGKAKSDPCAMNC
UniProt Q08999, whole entry: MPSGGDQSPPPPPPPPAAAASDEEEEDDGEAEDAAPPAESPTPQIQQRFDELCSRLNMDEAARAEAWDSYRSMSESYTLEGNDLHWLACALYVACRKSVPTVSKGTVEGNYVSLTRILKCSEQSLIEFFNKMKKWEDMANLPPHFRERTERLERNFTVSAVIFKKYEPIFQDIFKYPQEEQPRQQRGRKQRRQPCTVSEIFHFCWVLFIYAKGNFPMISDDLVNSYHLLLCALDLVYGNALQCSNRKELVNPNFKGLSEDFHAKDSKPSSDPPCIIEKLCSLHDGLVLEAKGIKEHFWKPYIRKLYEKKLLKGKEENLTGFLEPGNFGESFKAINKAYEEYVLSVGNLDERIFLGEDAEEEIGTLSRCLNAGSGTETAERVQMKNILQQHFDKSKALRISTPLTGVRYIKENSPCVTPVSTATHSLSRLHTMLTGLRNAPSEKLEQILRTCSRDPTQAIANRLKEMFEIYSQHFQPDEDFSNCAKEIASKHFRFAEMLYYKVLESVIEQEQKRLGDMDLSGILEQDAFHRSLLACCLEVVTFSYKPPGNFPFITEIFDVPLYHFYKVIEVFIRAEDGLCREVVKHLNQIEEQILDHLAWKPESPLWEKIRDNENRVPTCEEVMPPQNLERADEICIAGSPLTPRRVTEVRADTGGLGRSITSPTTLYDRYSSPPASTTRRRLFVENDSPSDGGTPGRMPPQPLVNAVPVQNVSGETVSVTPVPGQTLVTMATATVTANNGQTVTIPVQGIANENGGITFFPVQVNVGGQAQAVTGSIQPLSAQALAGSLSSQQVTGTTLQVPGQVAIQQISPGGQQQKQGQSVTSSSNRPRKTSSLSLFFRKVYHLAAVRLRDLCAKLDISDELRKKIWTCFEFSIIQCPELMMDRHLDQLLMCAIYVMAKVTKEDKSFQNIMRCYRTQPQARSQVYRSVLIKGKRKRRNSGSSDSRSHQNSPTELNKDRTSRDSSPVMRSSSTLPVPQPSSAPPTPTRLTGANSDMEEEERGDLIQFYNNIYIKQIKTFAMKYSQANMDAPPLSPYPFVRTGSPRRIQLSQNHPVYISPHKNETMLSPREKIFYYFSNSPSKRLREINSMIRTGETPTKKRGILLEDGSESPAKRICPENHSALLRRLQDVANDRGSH

## haemagglutinin (HA)-tagged wild-type p130 (from UniProt Q08999 1-1139)
  binding: binds

— PMC4974476, “Structural basis for LIN54 recognition of CHR elements in cell cycle-regulated promoters”
